These results are taken from patent US20070050862A1, “Promoter and methods of use in plants” (priority 2005, published 2007).

In this data set the test system is Arabidopsis roots. Put plainly: Root growth, morphology and gravity response of seedlings on hormone-supplemented media. Type of data set: in vivo, Arabidopsis thaliana.

Consider `NC1(C(=O)O)CC1` [ACC, 1 aminocyclo-propane-1 carboxylic acid], for which the “Root morphology compared to control plates” value (10 days on MS plates containing 10 μM ACC) is “significantly shorter, more branched and had a considerable increase in root hair density”.

As for `O=C(O)c1ccccc1C(=O)Nc1cccc2ccccc12` [NPA, N-1-naphthylphthalamic acid], the “Direction of root growth on horizontal plates (gravitropic response)” value (plates supplemented with 1 μM NPA, control roots penetrated the agar) is on record as “grew along the surface of the agar”.
